{
  "source": "patent US7951827B2",
  "about": "“Synthesis and antiprotozoal activity of dicationic 3,5-diphenylisoxazoles” (The University of North Carolina at Chapel Hill, priority 2005, dated 2011)",
  "tested_on": "Trypanosoma brucei brucei",
  "test": "In vitro antiprotozoal activity against Trypanosoma brucei brucei",
  "format": "cell-based",
  "settings": "dihydrochloride; read-out: IC50 values against T. brucei brucei",
  "method": "In vitro antiprotozoal activities, see Ismail, M. A., et al., J. Med. Chem. 46, 4761-4769 (2003), and cytotoxicity were measured following established protocols, see Balz, T., et al., EMBO J., 4, 1273-1277 (1985); Räz. […] Other positive controls employed were melarsoprol (against T. brucei), chloroquine, and artemisinin (against P. falciparum), and podophyllotoxin (against VERO cells).",
  "note": "Some of these results come from one statement about several compounds together.",
  "data": [
    {"smiles": "COc1cc(C(=N)N)ccc1-c1cc(-c2cccc(C(=N)N)c2)no1.Cl.Cl", "note": "[Compound 18, 5-(4-Amidino-2-methoxyphenyl)-3-(3-amidinophenyl)isoxazole dihydrochloride]", "values": [
      {"measurement": "IC50", "result": "3.5 to 9", "unit": "nM"}
    ]}
  ]
}
